Test results: the supplement of paper PMC10849652
The other results are listed elsewhere or left out.

The chains behind the UniProt entries cited, without tags or fusion partners. Where a name states a change or a piece, a line headed by the entry shows the natural chain unless it says otherwise.
UniProt Q96MP8: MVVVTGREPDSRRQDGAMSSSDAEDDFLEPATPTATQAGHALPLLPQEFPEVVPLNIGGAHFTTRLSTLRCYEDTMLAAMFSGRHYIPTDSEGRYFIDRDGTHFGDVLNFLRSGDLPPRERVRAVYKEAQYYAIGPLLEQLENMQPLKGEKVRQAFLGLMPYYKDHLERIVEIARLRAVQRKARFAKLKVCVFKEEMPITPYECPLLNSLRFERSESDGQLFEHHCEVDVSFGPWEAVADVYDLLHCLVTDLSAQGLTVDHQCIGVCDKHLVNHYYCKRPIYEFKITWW
UniProt P05412, whole entry, looked up: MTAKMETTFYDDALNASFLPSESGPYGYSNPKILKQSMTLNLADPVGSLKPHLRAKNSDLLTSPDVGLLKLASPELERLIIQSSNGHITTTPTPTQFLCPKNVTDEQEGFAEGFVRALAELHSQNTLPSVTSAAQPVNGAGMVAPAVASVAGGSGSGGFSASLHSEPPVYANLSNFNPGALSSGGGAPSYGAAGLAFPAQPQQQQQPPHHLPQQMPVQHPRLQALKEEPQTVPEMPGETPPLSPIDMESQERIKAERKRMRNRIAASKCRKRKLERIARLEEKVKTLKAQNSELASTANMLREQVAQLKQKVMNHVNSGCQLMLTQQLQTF
UniProt Q9NQX7: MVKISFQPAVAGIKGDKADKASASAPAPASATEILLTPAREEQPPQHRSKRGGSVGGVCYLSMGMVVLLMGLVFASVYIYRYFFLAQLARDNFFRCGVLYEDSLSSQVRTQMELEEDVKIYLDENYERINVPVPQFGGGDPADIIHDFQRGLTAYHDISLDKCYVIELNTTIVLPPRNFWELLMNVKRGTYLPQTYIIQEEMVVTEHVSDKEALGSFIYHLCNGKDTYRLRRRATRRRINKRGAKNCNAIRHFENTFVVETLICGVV
UniProt Q8WYB5, whole entry, looked up: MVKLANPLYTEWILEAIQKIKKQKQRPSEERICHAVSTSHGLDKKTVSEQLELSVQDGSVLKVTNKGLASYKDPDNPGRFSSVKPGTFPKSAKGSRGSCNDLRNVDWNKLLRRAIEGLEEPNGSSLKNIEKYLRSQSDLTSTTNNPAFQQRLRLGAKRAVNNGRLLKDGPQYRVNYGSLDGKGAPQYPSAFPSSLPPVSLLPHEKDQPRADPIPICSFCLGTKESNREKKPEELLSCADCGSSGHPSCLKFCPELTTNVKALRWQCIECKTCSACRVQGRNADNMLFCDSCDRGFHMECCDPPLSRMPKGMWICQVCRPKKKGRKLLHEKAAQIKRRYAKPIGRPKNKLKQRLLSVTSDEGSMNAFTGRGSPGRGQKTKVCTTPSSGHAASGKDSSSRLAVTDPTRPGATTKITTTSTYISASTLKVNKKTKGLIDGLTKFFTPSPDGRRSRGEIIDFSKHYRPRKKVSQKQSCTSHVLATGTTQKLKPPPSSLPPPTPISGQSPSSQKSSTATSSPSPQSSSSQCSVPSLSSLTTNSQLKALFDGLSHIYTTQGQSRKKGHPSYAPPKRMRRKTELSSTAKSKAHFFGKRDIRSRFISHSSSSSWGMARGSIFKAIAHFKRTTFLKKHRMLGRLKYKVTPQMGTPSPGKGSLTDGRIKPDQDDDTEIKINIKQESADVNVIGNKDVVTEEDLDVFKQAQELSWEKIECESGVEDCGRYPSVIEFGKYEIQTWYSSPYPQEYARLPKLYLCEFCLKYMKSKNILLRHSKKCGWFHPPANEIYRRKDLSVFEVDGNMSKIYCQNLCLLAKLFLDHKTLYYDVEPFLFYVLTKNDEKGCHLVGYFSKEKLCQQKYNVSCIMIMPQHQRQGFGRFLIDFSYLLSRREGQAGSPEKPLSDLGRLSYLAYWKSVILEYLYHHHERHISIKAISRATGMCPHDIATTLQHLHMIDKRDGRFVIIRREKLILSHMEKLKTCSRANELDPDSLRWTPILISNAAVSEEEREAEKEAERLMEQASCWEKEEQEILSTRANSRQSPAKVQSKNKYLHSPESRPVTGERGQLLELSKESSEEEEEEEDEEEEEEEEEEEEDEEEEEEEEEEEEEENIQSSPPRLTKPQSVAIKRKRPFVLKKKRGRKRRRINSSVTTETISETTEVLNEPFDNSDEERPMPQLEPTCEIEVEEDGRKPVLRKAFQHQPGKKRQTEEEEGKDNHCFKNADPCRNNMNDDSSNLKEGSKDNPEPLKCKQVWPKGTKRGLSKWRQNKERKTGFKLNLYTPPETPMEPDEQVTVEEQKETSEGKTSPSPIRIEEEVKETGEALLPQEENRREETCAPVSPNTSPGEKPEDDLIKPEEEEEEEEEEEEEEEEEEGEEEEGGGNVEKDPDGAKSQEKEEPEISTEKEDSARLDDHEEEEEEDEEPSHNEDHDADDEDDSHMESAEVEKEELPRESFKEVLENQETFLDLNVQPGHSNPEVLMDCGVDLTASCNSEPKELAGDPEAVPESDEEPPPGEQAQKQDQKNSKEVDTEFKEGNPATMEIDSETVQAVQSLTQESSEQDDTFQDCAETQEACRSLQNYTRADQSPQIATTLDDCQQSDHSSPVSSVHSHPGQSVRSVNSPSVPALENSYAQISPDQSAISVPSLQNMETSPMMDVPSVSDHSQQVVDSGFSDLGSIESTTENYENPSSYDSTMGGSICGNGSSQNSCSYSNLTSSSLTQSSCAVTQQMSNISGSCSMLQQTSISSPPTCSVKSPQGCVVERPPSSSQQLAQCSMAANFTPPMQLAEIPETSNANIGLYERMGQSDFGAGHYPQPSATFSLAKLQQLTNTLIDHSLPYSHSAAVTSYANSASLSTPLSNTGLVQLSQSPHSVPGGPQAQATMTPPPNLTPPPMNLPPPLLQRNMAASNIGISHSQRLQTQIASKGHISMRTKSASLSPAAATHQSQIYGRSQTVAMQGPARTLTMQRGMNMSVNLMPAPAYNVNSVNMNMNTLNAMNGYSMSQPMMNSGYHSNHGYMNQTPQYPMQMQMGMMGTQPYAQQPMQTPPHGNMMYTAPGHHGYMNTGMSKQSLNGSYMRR
UniProt Q86VI3: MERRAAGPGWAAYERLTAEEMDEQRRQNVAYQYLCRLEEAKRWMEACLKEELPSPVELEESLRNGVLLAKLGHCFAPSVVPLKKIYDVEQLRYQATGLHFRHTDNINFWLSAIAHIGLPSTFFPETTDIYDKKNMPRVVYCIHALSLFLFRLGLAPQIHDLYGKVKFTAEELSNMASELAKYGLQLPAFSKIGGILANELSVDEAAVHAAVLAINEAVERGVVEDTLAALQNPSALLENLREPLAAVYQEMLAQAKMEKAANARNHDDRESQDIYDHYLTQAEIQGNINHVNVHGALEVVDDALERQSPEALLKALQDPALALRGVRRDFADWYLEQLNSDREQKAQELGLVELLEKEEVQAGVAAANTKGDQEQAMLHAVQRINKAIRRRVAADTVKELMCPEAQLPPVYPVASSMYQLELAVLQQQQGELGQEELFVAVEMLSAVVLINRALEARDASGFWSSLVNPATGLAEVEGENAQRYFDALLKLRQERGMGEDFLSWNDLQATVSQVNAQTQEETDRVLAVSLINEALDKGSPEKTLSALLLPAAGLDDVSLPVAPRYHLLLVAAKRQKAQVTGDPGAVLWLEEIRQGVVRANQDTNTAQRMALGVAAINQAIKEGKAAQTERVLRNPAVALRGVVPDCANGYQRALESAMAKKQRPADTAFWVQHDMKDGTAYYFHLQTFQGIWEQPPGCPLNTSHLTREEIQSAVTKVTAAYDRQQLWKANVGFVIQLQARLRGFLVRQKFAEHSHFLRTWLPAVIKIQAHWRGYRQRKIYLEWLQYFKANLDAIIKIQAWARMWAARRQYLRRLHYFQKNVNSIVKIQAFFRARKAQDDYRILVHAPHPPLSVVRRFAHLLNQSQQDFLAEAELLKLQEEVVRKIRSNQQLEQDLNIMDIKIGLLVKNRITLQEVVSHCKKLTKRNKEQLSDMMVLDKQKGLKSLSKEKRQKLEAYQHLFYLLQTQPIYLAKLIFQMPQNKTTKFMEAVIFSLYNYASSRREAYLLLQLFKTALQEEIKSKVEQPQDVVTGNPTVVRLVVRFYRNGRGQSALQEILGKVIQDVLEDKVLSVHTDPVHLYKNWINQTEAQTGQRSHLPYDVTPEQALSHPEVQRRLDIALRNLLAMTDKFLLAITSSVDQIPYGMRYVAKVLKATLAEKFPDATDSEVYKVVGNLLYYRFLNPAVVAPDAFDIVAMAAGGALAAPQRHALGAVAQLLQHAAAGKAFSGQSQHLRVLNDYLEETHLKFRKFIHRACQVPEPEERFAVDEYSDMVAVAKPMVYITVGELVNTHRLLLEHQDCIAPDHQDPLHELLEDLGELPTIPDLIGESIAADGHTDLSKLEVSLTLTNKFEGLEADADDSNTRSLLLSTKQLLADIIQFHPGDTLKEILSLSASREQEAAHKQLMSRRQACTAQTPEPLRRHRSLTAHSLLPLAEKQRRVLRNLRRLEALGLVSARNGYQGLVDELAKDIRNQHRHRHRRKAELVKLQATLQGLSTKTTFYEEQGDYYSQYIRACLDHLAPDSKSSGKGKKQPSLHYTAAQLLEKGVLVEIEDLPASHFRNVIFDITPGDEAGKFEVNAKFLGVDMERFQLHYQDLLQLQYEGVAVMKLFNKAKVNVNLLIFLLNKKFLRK
UniProt Q8N5M9: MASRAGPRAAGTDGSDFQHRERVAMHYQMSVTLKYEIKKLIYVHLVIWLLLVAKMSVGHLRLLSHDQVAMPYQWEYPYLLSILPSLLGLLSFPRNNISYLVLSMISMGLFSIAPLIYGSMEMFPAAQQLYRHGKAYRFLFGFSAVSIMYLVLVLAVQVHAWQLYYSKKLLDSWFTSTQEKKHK
UniProt Q92551: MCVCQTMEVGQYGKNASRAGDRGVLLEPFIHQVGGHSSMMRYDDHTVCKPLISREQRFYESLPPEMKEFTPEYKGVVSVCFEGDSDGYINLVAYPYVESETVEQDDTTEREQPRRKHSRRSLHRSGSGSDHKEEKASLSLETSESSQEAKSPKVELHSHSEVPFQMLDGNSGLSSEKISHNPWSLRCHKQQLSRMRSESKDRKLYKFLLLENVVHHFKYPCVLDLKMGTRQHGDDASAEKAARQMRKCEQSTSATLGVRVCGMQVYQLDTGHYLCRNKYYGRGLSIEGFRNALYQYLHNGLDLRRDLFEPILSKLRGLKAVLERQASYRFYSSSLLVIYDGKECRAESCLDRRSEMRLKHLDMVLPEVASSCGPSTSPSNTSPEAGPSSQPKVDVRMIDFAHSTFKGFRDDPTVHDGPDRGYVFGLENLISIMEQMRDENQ
UniProt Q8WVZ9: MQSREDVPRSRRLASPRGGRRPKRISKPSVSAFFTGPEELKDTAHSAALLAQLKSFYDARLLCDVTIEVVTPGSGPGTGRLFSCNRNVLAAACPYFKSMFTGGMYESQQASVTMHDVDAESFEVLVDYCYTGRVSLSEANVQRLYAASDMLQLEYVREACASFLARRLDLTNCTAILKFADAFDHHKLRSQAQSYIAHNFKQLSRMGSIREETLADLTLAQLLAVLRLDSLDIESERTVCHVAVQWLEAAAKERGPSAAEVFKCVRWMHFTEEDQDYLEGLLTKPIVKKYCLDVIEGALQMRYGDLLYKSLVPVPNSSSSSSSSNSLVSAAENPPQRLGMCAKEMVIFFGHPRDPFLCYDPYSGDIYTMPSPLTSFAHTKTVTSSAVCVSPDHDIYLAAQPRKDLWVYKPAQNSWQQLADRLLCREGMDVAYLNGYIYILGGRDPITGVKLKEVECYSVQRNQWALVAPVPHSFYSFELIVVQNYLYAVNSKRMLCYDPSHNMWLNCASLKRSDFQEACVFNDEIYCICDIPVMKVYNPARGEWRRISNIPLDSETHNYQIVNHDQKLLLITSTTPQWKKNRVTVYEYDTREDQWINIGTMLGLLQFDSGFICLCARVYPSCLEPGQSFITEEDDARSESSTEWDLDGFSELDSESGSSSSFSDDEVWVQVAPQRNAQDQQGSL
UniProt Q8NAX2: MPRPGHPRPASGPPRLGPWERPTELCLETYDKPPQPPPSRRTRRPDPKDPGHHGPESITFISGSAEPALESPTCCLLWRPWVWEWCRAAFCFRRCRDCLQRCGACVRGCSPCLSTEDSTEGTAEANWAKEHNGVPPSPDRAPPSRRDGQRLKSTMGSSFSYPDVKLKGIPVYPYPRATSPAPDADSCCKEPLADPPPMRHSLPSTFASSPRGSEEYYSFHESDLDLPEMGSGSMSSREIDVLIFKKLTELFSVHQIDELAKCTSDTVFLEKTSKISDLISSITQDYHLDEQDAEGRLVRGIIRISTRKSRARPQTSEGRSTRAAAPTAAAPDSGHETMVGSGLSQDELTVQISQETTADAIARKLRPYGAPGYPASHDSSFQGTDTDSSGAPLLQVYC
UniProt O43731: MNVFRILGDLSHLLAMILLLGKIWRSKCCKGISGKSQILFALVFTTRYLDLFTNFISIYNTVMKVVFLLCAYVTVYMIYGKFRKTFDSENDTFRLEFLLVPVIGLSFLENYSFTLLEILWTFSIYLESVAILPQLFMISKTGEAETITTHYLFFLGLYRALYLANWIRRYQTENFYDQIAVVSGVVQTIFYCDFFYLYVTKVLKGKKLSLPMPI

These targets were tested with NC(=O)Nc1cc(-c2cccc(F)c2)sc1C(=O)N[C@H]1CCCNC1 (assay: log2 fold change, soluble protein after heating vs DMSO (PISA); higher = thermal stabilisation; K562 lysate, 10 uM; active = over 0.2 and 3.5 SD of the protein, either way, in both replicates (recomputed)).
Outline: (§1)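 K562 pellets were dounce-homogenised in PBS pH 7.4 with 1 mM MgCl2, and the crude extract at 1 mg/mL protein was treated with 10 μM compound for 30 min. Aliquots were heated for 3 min across 48°C-58°C, pooled, and brought to 0.5% NP-40 at 4°C; soluble protein was the supernatant after 21,000xg for 90 min. Soluble protein was quantified by TMTpro 16plex LC-MS/MS with channel sums equalised, and reported as log2 fold change in thermal stability against DMSO controls, with values from duplicates.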

log2 fold change, inactive:
KCTD7 (UniProt Q96MP8) 0.087
JAG2 (UniProt Q9Y219) -0.068
KCMF1 (UniProt Q9P0J7) 0.002
KAT2A (UniProt Q92830) 0.207
JTB (UniProt O76095) 0.01
KDM3B (UniProt Q7LBC6) 0.026
KDM1B (UniProt Q8NB78) 0.027
JUN (UniProt P05412) -0.002
ITM2C (UniProt Q9NQX7) -0.037
ITGA2B (UniProt P08514) 0.007
IRS2 (UniProt Q9Y4H2) 0.142
KAT6B (UniProt Q8WYB5) -0.003
IQGAP3 (UniProt Q86VI3) 0.073
IST1 isoform 2 (UniProt P53990) 0.048
ITPR1 (UniProt Q14643) 0.027
ITPR3 (UniProt Q14573) -0.067
JAGN1 (UniProt Q8N5M9) 0.003
IQGAP1 (UniProt P46940) -0.006
JAK3 (UniProt P52333) 0.008
IP6K1 (UniProt Q92551) 0.075
KBTBD7 (UniProt Q8WVZ9) 0
KCNK5 (UniProt O95279) 0.141
KDF1 (UniProt Q8NAX2) 0.012
ITIH2 (UniProt P19823) 0.046
KCNN4 (UniProt O15554) 0.081
KATNBL1 (UniProt Q9H079) 0.158
JMJD4 (UniProt Q9H9V9) 0.108
KDELR3 (UniProt O43731) -0.001
KDELR1 (UniProt P24390) -0.02

What follows are targets tested with NC(=O)c1cnc(N[C@@H]2CCCC[C@@H]2N)nc1Nc1cccc(-n2nccn2)c1 in the same assay as above.
Outline: as §1

log2 fold change, inactive:
KCTD7 (UniProt Q96MP8) 0.038
JAG2 (UniProt Q9Y219) 0.061
KCNK1 (UniProt O00180) 0.03
KCMF1 (UniProt Q9P0J7) 0.027
ITGAE (UniProt P38570) 0.021
KAT2A (UniProt Q92830) -0.032
JTB (UniProt O76095) 0.062
KDM3B (UniProt Q7LBC6) 0.007
KDM1B (UniProt Q8NB78) 0.02
JUN (UniProt P05412) 0.04
ITM2C (UniProt Q9NQX7) -0.001
ITGA2B (UniProt P08514) -0.103
IRS2 (UniProt Q9Y4H2) 0.062
KAT6B (UniProt Q8WYB5) 0.009
IPO5 (UniProt H0Y3V4) -0.034
IQGAP3 (UniProt Q86VI3) -0.164
IST1 isoform 2 (UniProt P53990) -0.017
ITPR1 (UniProt Q14643) 0.151
IQUB (UniProt Q8NA54) -0.003
ITPR3 (UniProt Q14573) 0.028
JAGN1 (UniProt Q8N5M9) -0.035
IQGAP1 (UniProt P46940) 0.01
JAK3 (UniProt P52333) -0.056
IP6K1 (UniProt Q92551) -0.005
ITPRID2 (UniProt P28290) 0.012
JMJD7 (UniProt P0C870) 0.028
KBTBD7 (UniProt Q8WVZ9) -0.053
KCNK5 (UniProt O95279) -0.032
IQCD (UniProt Q96DY2) -0.024
KDF1 (UniProt Q8NAX2) 0.06
ITIH2 (UniProt P19823) -0.031
KCNN4 (UniProt O15554) -0.014
KATNBL1 (UniProt Q9H079) 0.017
JMJD4 (UniProt Q9H9V9) 0.01
KDELR3 (UniProt O43731) -0.05
KDELR1 (UniProt P24390) -0.035
KAT14 (UniProt Q9H8E8) -0.006
ITM2A (UniProt O43736) 0.093
ITGB1BP1 (UniProt O14713) -0.069

Each target was assayed with NC1(c2ccc(-c3nc4ccn5c(=O)[nH]nc5c4cc3-c3ccccc3)cc2)CCC1 in the same assay as above.
Outline: as §1

log2 fold change, inactive:
KCTD7 (UniProt Q96MP8) -0.035
JAG2 (UniProt Q9Y219) 0.103
KCNK1 (UniProt O00180) 0.05
KCMF1 (UniProt Q9P0J7) -0.008
ITGAE (UniProt P38570) -0.133
JTB (UniProt O76095) -0.027
KDM3B (UniProt Q7LBC6) 0.013
KDM1B (UniProt Q8NB78) 0.054
JUN (UniProt P05412) -0.011
ITM2C (UniProt Q9NQX7) 0.019
ITGA2B (UniProt P08514) 0.055
IRS2 (UniProt Q9Y4H2) 0.112
KAT6B (UniProt Q8WYB5) -0.069
IPO5 (UniProt H0Y3V4) -0.198
IQGAP3 (UniProt Q86VI3) -0.019
IST1 isoform 2 (UniProt P53990) 0.043
ITPR3 (UniProt Q14573) -0.472
JAGN1 (UniProt Q8N5M9) 0.015
IQGAP1 (UniProt P46940) 0.021
IP6K1 (UniProt Q92551) 0.032
ITPRID2 (UniProt P28290) -0.034
JMJD7 (UniProt P0C870) -0.07
KBTBD7 (UniProt Q8WVZ9) 0.036
KCNK5 (UniProt O95279) -0.024
KDF1 (UniProt Q8NAX2) -0.118
KCNN4 (UniProt O15554) 0.103
KATNBL1 (UniProt Q9H079) 0.023
JMJD4 (UniProt Q9H9V9) 0.129
KDELR3 (UniProt O43731) 0.245
KDELR1 (UniProt P24390) -0.027
KAT14 (UniProt Q9H8E8) 0.1
ITM2A (UniProt O43736) -0.1
ITGB1BP1 (UniProt O14713) -0.123
